Values from PubChem BioAssay AID504774 (Drosophila RNAi Screening Center, 2011)
Aim: 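Fly genes whose loss alters survival after alkylation damage to DNA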 (primary screen). Cell system: Drosophila Kc167 cells. Knock-down reagent: long dsRNA against Drosophila genes, about 0.25 µg dsRNA per well. Timing: about 6 days: 3 days knock-down, then 3 days with or without MMS. Conditions: methyl methanesulphonate 0.004% (w/v) for 3 days after knock-down. Detection: 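ATP-dependent luminescence as a measure of live cells in MMS-exposed wells, quantile normalised within each plate, with replicate values also given as a mean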. Reading the numbers: mean viability with MMS: higher = more surviving cells after MMS.
The deposit covers about 23,000 reagents; this is an unselected part of those with a known target gene and a result. 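Values are quantile-normalised luminescence on an arbitrary scale; higher means more cells surviving MMS.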 A plus sign joins genes that one reagent is predicted to hit. Further read-outs or replicates are left out here. No sequences are given here.

mean viability with MMS, by target and reagent
stan (GeneID 36125): DRSC05234 3.30e6; DRSC07697 3.53e6
Kaz1-ORFB + Kaz1-ORFA: DRSC08669 3.74e6
blp (GeneID 41937): DRSC15757 3.41e6
CG11350 (GeneID 38554): DRSC08181 3.54e6
cer (GeneID 37229): DRSC05992 3.62e6
CG46301 (GeneID 34829): DRSC01916 3.69e6
Mf (GeneID 41824): DRSC16120 3.38e6
comm2 (GeneID 39716): DRSC09881 3.26e6; DRSC10877 3.70e6
mus201 + Chrac-14: DRSC03568 3.58e6; DRSC03575 3.26e6
neb (GeneID 35293): DRSC03577 3.40e6
CG13407 (GeneID 42599): DRSC14583 3.80e6
CG4660 (GeneID 31542): DRSC18378 3.55e6
CG42535 (GeneID 8674023): DRSC09041 3.52e6
CG14767 (GeneID 50250): DRSC06500 3.54e6
Ptr (GeneID 35546): DRSC04852 3.41e6; DRSC21517 3.63e6
PGAP1 (GeneID 31487): DRSC18286 3.53e6
wor (GeneID 34906): DRSC03637 3.58e6
RpL14 (GeneID 38983): DRSC11269 3.15e6
CG13605 (GeneID 42858): DRSC14608 3.67e6
CG3823 (GeneID 31573): DRSC18325 3.53e6
RhoGAP19D (GeneID 33048): DRSC20499 3.64e6; DRSC20500 3.65e6
CG8195 (GeneID 36725): DRSC07103 3.74e6
REG (GeneID 32274): DRSC20273 3.39e6
CG33137 (GeneID 36449): DRSC22131 3.57e6
Dhc1 (GeneID 41171): DRSC16503 3.75e6
CG9123 (GeneID 32462): DRSC20156 3.66e6
CG42788 (GeneID 41817): DRSC15330 3.64e6; DRSC16139 3.41e6; DRSC16152 3.48e6
CG3309 (GeneID 31450): DRSC18301 3.63e6
CG15673 (GeneID 37459): DRSC04263 3.71e6
Chd1 (GeneID 33505): DRSC00745 3.56e6
PpN58A (GeneID 37493): DRSC04642 3.40e6
CG14339 (GeneID 33286): DRSC00369 3.80e6
CG1146 (GeneID 38313): DRSC08189 3.49e6
CG3457 (GeneID 31196): DRSC18509 3.70e6
CG30156 (GeneID 246488): DRSC04959 3.42e6
CG14495 (GeneID 37056): DRSC06466 3.52e6
Hs6st (GeneID 42380): DRSC14348 3.66e6; DRSC15182 3.56e6; DRSC15581 3.57e6; DRSC21732 3.84e6
